Results reported in the supplement of paper PMC10849652.
Some of the results follow.

The chains behind the UniProt entries cited, without tags or fusion partners. Where a name states a change or a piece, a line headed by the entry shows the natural chain unless it says otherwise.
UniProt Q04323: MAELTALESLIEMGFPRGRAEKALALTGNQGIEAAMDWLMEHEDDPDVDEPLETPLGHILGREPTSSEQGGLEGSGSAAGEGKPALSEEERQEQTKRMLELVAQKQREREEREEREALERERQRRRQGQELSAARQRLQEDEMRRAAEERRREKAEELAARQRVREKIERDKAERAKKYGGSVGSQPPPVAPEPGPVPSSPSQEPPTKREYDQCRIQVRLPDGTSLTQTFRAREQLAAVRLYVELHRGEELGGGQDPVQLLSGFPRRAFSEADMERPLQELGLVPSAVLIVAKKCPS
UniProt P55072, whole entry, looked up: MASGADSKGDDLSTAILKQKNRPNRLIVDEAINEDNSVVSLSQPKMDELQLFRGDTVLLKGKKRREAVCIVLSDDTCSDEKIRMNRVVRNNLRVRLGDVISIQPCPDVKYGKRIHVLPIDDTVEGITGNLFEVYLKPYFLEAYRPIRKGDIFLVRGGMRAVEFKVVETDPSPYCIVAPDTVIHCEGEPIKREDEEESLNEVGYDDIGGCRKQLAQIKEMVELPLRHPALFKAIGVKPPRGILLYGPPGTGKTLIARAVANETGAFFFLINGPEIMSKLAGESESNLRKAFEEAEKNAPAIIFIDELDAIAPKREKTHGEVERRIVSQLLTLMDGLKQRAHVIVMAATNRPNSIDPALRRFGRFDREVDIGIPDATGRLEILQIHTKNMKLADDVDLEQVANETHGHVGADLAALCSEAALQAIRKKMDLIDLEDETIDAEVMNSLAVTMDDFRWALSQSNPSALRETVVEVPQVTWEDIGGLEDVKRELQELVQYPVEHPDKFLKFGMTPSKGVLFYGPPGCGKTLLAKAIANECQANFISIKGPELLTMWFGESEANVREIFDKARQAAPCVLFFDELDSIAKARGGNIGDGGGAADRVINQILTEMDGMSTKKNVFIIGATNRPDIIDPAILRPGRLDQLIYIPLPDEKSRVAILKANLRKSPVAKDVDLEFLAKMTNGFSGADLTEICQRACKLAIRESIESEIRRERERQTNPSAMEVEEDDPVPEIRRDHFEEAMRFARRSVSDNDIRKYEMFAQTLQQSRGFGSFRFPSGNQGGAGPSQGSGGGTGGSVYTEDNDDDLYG
UniProt P11441: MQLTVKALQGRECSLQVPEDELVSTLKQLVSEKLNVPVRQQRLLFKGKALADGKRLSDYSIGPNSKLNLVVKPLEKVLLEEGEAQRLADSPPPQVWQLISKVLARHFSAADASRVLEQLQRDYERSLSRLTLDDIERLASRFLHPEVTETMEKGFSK
UniProt Q9Y5K5, whole entry, looked up: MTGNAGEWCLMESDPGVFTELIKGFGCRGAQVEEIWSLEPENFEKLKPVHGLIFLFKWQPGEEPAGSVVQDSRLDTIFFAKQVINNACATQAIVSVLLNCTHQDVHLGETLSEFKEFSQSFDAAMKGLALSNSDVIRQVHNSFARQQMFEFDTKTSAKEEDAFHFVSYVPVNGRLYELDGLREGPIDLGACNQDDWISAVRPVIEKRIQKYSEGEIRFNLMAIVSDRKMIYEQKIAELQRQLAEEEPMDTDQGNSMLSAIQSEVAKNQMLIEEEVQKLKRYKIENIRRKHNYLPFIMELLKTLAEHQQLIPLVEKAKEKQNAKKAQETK
UniProt Q9BZX2: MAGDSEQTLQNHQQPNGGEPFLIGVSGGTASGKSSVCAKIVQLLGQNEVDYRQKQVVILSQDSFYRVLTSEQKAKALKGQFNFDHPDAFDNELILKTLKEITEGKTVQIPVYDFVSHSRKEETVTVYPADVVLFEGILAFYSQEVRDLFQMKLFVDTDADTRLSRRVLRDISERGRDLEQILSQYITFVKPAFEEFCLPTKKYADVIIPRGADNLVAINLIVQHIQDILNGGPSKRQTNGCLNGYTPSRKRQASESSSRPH
UniProt Q9BV40: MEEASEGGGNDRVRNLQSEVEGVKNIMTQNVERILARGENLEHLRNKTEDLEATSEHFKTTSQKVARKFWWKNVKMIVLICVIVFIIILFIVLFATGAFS
UniProt O14562: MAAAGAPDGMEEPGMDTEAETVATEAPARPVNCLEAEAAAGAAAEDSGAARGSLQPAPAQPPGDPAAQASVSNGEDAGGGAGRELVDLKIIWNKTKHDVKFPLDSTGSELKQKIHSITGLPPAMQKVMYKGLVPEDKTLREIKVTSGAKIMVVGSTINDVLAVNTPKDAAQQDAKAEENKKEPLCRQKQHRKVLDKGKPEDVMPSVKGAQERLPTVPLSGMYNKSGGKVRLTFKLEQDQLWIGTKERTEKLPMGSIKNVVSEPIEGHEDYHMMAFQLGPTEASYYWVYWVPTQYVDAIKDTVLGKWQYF
UniProt Q9HA47: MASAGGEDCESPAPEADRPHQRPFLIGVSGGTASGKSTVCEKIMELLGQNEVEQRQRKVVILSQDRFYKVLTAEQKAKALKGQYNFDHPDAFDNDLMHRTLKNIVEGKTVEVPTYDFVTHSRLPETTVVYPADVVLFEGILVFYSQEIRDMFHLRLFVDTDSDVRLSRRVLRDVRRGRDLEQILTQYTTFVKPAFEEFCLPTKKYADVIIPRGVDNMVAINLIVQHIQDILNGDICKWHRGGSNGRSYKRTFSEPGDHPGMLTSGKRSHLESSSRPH
UniProt Q15853: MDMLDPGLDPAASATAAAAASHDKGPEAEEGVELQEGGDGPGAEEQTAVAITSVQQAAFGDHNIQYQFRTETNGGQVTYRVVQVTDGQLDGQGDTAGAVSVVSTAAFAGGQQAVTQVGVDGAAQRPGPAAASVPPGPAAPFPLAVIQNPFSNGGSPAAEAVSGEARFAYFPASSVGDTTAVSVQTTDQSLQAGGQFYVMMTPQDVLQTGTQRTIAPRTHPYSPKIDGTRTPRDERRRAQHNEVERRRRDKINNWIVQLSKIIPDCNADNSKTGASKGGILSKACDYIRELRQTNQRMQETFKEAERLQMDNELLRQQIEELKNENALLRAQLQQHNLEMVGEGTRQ
UniProt Q9BZL1: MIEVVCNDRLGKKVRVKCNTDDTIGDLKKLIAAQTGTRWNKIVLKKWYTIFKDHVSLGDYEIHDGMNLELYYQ
UniProt Q08AM6: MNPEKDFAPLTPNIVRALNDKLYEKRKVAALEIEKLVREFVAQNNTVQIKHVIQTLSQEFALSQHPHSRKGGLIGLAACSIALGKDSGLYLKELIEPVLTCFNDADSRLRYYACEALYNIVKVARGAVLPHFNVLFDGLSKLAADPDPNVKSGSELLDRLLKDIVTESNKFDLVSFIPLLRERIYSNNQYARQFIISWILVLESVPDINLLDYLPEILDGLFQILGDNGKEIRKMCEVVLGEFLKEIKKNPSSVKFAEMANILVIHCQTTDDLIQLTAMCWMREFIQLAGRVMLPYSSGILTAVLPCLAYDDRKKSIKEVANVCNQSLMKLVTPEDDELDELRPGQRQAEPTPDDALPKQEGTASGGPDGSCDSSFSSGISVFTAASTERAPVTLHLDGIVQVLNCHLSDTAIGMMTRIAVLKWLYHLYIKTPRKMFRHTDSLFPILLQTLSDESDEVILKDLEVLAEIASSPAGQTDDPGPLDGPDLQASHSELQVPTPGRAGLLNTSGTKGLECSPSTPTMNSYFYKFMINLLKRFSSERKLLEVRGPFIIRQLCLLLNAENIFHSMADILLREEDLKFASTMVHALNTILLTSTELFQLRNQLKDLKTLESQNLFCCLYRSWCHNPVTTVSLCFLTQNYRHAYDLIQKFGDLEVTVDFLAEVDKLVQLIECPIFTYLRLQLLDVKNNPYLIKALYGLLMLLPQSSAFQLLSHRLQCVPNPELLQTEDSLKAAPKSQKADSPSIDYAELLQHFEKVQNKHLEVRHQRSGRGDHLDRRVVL
UniProt O94966: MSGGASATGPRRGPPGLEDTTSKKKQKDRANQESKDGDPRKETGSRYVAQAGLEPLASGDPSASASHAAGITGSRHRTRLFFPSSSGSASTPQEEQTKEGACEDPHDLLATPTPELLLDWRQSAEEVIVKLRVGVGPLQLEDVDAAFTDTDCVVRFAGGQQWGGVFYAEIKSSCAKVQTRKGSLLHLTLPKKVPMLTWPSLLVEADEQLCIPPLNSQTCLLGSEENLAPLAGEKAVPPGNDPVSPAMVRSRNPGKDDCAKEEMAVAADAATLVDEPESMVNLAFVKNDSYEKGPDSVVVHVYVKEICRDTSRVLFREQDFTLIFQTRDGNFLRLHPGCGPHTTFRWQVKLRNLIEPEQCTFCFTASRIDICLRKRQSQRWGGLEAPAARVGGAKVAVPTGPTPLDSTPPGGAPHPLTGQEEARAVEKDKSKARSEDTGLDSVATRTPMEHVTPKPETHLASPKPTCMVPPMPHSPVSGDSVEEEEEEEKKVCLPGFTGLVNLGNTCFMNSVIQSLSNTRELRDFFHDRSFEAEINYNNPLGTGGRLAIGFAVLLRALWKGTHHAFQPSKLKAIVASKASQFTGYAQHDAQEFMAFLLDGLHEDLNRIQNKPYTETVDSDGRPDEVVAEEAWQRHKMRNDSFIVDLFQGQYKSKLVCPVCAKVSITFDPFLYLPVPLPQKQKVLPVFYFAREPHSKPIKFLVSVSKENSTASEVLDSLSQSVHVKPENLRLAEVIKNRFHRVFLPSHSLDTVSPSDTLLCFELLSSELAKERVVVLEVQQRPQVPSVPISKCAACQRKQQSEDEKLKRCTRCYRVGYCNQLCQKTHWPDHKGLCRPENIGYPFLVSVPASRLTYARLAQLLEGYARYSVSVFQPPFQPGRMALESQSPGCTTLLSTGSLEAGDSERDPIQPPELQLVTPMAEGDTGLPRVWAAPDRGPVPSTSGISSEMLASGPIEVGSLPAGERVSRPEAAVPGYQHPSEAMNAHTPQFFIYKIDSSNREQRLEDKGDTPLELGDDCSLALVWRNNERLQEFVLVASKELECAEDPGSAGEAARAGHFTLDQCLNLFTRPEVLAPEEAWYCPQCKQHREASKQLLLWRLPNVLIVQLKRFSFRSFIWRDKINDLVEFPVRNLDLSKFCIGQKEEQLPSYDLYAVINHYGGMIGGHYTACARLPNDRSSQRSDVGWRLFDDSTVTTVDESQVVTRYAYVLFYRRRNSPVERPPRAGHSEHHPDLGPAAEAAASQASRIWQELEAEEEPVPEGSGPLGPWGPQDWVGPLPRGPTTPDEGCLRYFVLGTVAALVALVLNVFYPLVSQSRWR
UniProt O94874: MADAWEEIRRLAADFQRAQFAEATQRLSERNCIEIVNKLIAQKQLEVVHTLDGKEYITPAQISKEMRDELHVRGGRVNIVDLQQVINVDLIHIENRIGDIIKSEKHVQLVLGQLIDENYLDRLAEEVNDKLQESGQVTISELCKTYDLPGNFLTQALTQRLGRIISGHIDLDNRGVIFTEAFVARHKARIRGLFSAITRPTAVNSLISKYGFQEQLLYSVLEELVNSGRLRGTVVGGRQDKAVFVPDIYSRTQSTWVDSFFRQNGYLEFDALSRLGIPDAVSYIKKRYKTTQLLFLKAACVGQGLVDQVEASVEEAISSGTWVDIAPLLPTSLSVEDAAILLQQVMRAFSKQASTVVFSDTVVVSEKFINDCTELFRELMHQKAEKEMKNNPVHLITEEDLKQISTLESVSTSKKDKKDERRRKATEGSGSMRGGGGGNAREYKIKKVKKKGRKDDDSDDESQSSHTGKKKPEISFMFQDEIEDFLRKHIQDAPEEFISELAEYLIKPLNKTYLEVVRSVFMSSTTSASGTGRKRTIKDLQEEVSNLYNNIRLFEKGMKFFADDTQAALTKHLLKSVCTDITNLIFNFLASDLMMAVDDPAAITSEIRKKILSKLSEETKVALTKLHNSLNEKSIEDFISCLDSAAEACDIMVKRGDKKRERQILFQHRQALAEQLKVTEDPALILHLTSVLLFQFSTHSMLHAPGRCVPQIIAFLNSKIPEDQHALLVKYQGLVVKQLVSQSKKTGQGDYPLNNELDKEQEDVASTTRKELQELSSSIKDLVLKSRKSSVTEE
UniProt Q53GS9: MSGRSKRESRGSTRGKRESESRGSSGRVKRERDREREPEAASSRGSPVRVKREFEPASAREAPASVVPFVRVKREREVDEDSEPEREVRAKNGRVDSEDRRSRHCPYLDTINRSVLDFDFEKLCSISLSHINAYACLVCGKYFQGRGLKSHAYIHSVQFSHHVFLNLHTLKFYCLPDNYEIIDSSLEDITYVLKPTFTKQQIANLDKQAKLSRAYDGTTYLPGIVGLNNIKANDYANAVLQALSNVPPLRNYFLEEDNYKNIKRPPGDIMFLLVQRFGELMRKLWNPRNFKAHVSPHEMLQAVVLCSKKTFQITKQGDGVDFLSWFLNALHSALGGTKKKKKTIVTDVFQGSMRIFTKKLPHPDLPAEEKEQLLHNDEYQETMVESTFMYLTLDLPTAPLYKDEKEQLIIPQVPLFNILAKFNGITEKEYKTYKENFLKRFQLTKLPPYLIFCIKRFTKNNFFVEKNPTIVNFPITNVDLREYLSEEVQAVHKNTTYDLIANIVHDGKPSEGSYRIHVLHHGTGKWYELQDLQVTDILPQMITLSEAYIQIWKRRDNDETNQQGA

Assays:
Assay in all cases: log2 fold change, soluble protein after heating vs DMSO (PISA); higher = thermal stabilisation; K562 cells, 10 uM, 30 min; active = over 0.2 and 3.5 SD of the protein, either way, in both replicates (recomputed)
[1] = compound: NC(=O)Nc1cc(-c2cccc(F)c2)sc1C(=O)N[C@H]1CCCNC1
How it was run: (§1)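 K562 cells at 2×10^6 cells/mL were treated for 30 min with 10 μM compound, and aliquots were heated for 3 min over 48°C-58°C before pooling. Extraction used PBS with 0.5% NP-40 at 4°C, and soluble protein was the supernatant after 21,000xg for 90 min, measured by TMTpro 16plex LC-MS/MS with channel sums equalised. Thermal stability values, relative to control samples and from duplicates, are log2 fold changes.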

[2] = compound: NC(=O)c1cnc(N[C@@H]2CCCC[C@@H]2N)nc1Nc1cccc(-n2nccn2)c1
How it was run: as §1

[3] = compound: NC1(c2ccc(-c3nc4ccn5c(=O)[nH]nc5c4cc3-c3ccccc3)cc2)CCC1
How it was run: as §1

[4] = compound: NCC(=O)Nc1ccc(-n2nc(C(F)(F)F)cc2-c2ccc3c(ccc4ccccc43)c2)cc1
How it was run: as §1

[5] = compound: Nc1ccccc1NC(=O)c1ccc(CNC(=O)OCc2cccnc2)cc1 [entinostat]
How it was run: as §1

[6] = compound: O=C(CCCCCCC(=O)Nc1ccccc1)NO [vorinostat]
How it was run: as §1

[7] = compound: O=C(CCCCCCNC(=O)c1cnc(N(c2ccccc2)c2ccccc2Cl)nc1)NO [citarinostat]
How it was run: as §1

[8] = compound: O=C(O)c1ccc2c(c1)nc(Nc1cccc(Cl)c1)c1ccncc12 [silmitasertib]
How it was run: as §1

[9] = compound: O=C1NC(=O)C(c2cnc3ccccn23)=C1c1cn2c3c(cc(F)cc13)CN(C(=O)N1CCCCC1)CC2
How it was run: as §1

[10] = compound: c1cc(OCCN2CCCCC2)cc(-c2n[nH]c3ccc(-c4nnc[nH]4)cc23)c1
How it was run: as §1

Measured: log2 fold change

UTP4 (UniProt Q969X6)
inactive: [1] 0.049 | [2] 0.033 | [3] 0.075 | [4] 0.05 | [5] -0.037 | [6] -0.051 | [7] -0.002 | [8] 0.064 | [9] 0.06 | [10] -0.03

UPF2 (UniProt Q9HAU5)
inactive: [1] -0.008 | [2] 0.063 | [3] 0.189 | [4] 0.056 | [5] 0.037 | [6] -0.092 | [7] -0.055 | [8] 0.119 | [9] 0.19 | [10] -0.238

USP24 (UniProt Q9UPU5)
inactive: [1] 0.18 | [2] 0.079 | [3] -0.053 | [4] 0.07 | [5] -0.095 | [6] -0.012 | [7] 0.012 | [8] 0.188 | [9] -0.2 | [10] 0.11

UHRF1BP1 (UniProt Q6BDS2)
inactive: [1] -0.019 | [2] 0.074 | [3] 0.019 | [4] 0.029 | [5] -0.058 | [6] 0.004 | [7] -0.012 | [8] -0.043 | [9] -0.032 | [10] 0.007

UBXN1 (UniProt Q04323)
inactive: [1] 0.004 | [2] -0.074 | [3] -0.088 | [4] -0.051 | [5] 0.038 | [6] -0.016 | [7] 0.041 | [8] 0.05 | [9] -0.012 | [10] -0.04

UPF1 (UniProt Q92900)
inactive: [1] -0.013 | [2] -0.004 | [3] 0.031 | [4] -0.012 | [5] -0.007 | [6] 0.005 | [7] 0.004 | [8] -0.012 | [9] 0.024 | [10] -0.05

UGP2 (UniProt Q16851)
inactive: [1] -0.016 | [2] -0.013 | [3] -0.017 | [4] -0.001 | [5] -0.015 | [6] 0.048 | [7] 0.024 | [8] -0.032 | [9] -0.058 | [10] -0.016

VCP (UniProt P55072)
inactive: [1] 0.052 | [2] 0.013 | [3] 0.024 | [4] 0.023 | [5] -0.019 | [6] -0.033 | [7] -0.008 | [8] -0.026 | [9] 0.006 | [10] -0.023

UBL4A (UniProt P11441)
inactive: [1] -0.024 | [2] -0.025 | [3] -0.105 | [4] -0.013 | [5] 0.076 | [6] 0.016 | [7] 0.073 | [8] 0.047 | [9] -0.013 | [10] -0.043

UBQLN2 (UniProt Q9UHD9)
inactive: [1] 0.033 | [2] 0.031 | [3] -0.033 | [4] 0.025 | [5] 0.025 | [6] -0.007 | [7] 0.089 | [8] 0.015 | [9] -0.006 | [10] -0.031

UCHL5 (UniProt Q9Y5K5)
inactive: [1] -0.003 | [2] -0.029 | [3] -0.124 | [4] -0.045 | [5] 0.048 | [6] 0.063 | [7] 0.08 | [8] 0.04 | [9] -0.084 | [10] -0.026

UCK2 (UniProt Q9BZX2)
inactive: [1] 0.021 | [2] -0.023 | [3] -0.067 | [4] -0.053 | [5] -0.019 | [6] 0.025 | [7] 0.031 | [8] -0.006 | [9] -0.039 | [10] -0.054

UNC45A (UniProt Q9H3U1)
inactive: [1] -0.019 | [2] -0.041 | [3] -0.086 | [4] -0.03 | [5] 0.051 | [6] 0.115 | [7] 0.027 | [8] 0.068 | [9] 0.161 | [10] -0.047

USP25 isoform 3 (UniProt Q9UHP3)
inactive: [1] -0.038 | [2] -0.027 | [3] -0.071 | [4] -0.067 | [5] 0.001 | [6] -0.019 | [7] -0.021 | [8] 0.051 | [9] -0.03 | [10] 0.011

Random excerpt: 2 entries already listed, in no set order.
UNC45A (UniProt Q9H3U1)
inactive: [1] -0.019 | [2] -0.041 | [3] -0.086 | [4] -0.03 | [5] 0.051 | [6] 0.115 | [7] 0.027 | [8] 0.068 | [9] 0.161 | [10] -0.047

UBQLN2 (UniProt Q9UHD9)
inactive: [1] 0.033 | [2] 0.031 | [3] -0.033 | [4] 0.025 | [5] 0.025 | [6] -0.007 | [7] 0.089 | [8] 0.015 | [9] -0.006 | [10] -0.031

Following part.

UTP15 (UniProt Q8TED0)
inactive: [1] 0.041 | [2] 0.141 | [3] 0.274 | [4] 0.084 | [5] -0.089 | [6] -0.025 | [7] -0.1 | [8] 0.2 | [9] 0.251 | [10] -0.158

VAMP8 (UniProt Q9BV40)
inactive: [1] 0.013 | [2] 0.077 | [3] -0.005 | [4] -0.046 | [5] 0.005 | [6] -0.102 | [7] 0 | [8] 0.021 | [9] 0.068 | [10] -0.004

USP3 (UniProt Q9Y6I4)
inactive: [1] 0.039 | [2] 0.016 | [3] -0.218 | [4] -0.115 | [5] -0.037 | [6] 0.092 | [7] 0.102 | [8] 0.019 | [9] -0.066 | [10] -0.014

VBP1 (UniProt P61758)
inactive: [1] 0.007 | [2] -0.005 | [3] 0.015 | [4] 0.04 | [5] -0.002 | [6] -0.031 | [7] 0.012 | [8] -0.018 | [9] -0.031 | [10] -0.004

UHRF1BP1L (UniProt A0JNW5)
inactive: [1] -0.004 | [2] -0.017 | [3] -0.028 | [4] 0.055 | [5] -0.024 | [6] -0.035 | [7] -0.032 | [8] 0.015 | [9] -0.052 | [10] -0.013

UBFD1 (UniProt O14562)
inactive: [1] -0.02 | [2] -0.061 | [3] -0.108 | [4] -0.029 | [5] 0.021 | [6] 0.016 | [7] 0.048 | [8] 0.036 | [9] -0.055 | [10] 0.002

UPRT (UniProt Q96BW1)
inactive: [1] -0.021 | [2] -0.079 | [3] -0.023 | [4] 0.037 | [5] -0.043 | [6] -0.053 | [7] -0.101 | [8] -0.018 | [9] 0.007 | [10] -0.005

UCK1 (UniProt Q9HA47)
inactive: [1] -0.019 | [2] -0.013 | [3] 0.071 | [4] 0.017 | [5] 0.012 | [6] 0.102 | [7] 0.1 | [8] -0.066 | [9] -0.064 | [10] -0.062

VAPB (UniProt O95292)
inactive: [1] 0.005 | [2] -0.031 | [3] -0.034 | [4] -0.037 | [5] 0.005 | [6] -0.006 | [7] 0.057 | [8] 0.009 | [9] 0.002 | [10] 0.014

USF2 (UniProt Q15853)
inactive: [1] 0.201 | [2] -0.009 | [3] 0.059 | [4] -0.02 | [5] -0.027 | [6] -0.134 | [7] -0.106 | [8] 0.065 | [9] 0.065 | [10] -0.057

UBL5 (UniProt Q9BZL1)
inactive: [1] -0.035 | [2] -0.018 | [3] -0.047 | [4] -0.054 | [5] 0.039 | [6] 0.033 | [7] 0.017 | [8] 0.061 | [9] -0.05 | [10] -0.044

VAC14 (UniProt Q08AM6)
inactive: [1] 0.007 | [2] -0.061 | [3] -0.124 | [4] -0.056 | [5] 0.009 | [6] 0.039 | [7] 0.003 | [8] 0.007 | [9] 0 | [10] -0.053

USP19 isoform 6 (UniProt O94966)
inactive: [1] -0.015 | [2] -0.036 | [3] -0.033 | [4] 0.006 | [5] 0.022 | [6] 0.042 | [7] 0.01 | [8] -0.009 | [9] -0.05 | [10] -0.055

UFL1 (UniProt O94874)
inactive: [1] -0.06 | [2] -0.013 | [3] -0.107 | [4] -0.066 | [5] 0.059 | [6] 0.074 | [7] 0.063 | [8] 0.029 | [9] -0.013 | [10] -0.048

UBL7 (UniProt Q96S82)
inactive: [1] -0.093 | [2] -0.035 | [3] -0.047 | [4] -0.11 | [5] 0.125 | [6] -0.018 | [7] 0.057 | [8] 0.027 | [9] -0.092 | [10] 0.012

USP39 (UniProt Q53GS9)
inactive: [1] -0.078 | [2] -0.005 | [3] 0.048 | [4] 0.001 | [5] -0.026 | [6] 0.048 | [7] -0.006 | [8] 0.036 | [9] 0.034 | [10] -0.085
